The record followed here is paper PMC5216726.

Chains of the proteins cited; added tags and fusions are not shown.
UniProt Q9R1E0: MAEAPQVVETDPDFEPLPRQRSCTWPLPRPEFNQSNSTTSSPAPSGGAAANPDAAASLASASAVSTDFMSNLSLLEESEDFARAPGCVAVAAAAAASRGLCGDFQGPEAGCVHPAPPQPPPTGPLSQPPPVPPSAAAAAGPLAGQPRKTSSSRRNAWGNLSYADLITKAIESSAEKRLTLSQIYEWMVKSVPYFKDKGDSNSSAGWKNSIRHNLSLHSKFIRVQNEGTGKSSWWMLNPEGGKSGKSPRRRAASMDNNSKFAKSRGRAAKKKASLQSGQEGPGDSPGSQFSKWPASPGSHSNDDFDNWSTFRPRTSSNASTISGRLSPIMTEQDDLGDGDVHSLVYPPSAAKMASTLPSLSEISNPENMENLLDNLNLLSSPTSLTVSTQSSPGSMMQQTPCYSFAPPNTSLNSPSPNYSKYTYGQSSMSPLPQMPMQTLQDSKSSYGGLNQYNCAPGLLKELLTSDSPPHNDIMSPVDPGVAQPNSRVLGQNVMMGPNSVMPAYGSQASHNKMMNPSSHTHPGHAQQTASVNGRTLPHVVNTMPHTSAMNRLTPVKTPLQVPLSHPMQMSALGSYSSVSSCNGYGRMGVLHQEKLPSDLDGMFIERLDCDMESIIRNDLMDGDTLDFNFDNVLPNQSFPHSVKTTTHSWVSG
UniProt G3V7R4: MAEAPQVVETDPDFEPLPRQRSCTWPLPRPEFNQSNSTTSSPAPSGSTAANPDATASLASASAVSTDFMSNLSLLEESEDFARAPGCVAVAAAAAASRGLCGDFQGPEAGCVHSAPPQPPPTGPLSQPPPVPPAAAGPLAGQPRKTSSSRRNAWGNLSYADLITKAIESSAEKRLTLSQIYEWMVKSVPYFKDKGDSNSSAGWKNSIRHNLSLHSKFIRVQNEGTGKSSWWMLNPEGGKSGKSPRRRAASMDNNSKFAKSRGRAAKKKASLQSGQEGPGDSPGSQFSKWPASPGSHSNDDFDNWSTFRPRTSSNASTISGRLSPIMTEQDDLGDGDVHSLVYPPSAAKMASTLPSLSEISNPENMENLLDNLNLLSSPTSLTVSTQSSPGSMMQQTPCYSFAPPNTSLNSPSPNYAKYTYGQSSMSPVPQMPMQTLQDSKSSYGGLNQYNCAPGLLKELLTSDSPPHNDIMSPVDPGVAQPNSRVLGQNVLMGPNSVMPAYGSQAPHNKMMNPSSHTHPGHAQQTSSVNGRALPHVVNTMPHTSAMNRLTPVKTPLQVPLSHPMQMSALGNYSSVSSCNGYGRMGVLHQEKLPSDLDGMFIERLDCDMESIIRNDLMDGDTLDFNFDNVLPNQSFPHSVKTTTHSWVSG

These are yes or no findings as the source states them, for the method shown. Binding seen in cells or lysates may run through a third protein. Some entries that bind do so weakly or less than the wild type.

Assay [1] addresses T1, Atg7 (mouse (endogenous in MPC5 podocytes)) (UniProt Q9D906).
T1 sequence: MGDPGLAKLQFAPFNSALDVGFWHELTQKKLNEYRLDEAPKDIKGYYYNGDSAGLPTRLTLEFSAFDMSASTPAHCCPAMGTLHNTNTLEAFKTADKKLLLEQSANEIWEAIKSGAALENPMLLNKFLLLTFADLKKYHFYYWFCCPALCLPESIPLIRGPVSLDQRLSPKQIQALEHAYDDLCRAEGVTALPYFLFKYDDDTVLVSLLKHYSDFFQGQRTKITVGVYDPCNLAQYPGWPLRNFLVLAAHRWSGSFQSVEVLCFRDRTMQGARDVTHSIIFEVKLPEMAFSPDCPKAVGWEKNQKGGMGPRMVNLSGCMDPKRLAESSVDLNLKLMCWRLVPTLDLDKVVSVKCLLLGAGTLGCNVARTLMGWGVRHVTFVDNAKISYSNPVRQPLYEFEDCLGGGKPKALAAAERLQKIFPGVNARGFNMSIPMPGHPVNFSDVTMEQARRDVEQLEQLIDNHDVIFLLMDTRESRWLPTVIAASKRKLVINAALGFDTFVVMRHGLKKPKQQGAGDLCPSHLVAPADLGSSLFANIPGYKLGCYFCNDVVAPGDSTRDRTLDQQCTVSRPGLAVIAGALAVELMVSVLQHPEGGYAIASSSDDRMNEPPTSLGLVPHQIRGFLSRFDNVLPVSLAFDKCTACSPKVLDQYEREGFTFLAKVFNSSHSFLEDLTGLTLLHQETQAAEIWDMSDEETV
Description: co-IP; whole-cell lysate of MPC5 podocytes (control, 10^-7 M Aldo, siRNA-Con or siRNA-P300); IP with anti-Ac-FOXO1 or anti-Atg7, Protein A/G-agarose, 4°C overnight, blot for the other protein; lysis buffer 150 mM NaCl, 0.1% Triton X-100, 0.5% deoxycholate, 0.1% SDS, 50 mM Tris-HCl pH 7.0, 1 mM EDTA.

In assay [2] the target is acetylated FOXO1 (mouse (endogenous in MPC5 podocytes)) (UniProt Q9R1E0). Described as above.
Assay [3] has as its target acetylated FOXO1 (rat glomeruli) (rat (endogenous in glomeruli)) (UniProt G3V7R4). Kind of assay: co-IP; lysate of freshly isolated glomeruli of control and Aldo-infused rats; IP with anti-Ac-FOXO1, Protein A/G-agarose, 4°C overnight, blot for Atg7; lysis buffer 150 mM NaCl, 0.1% Triton X-100, 0.5% deoxycholate, 0.1% SDS, 50 mM Tris-HCl pH 7.0, 1 mM EDTA.

Regarding “acetylated FOXO1 (from UniProt Q9R1E0 1-652)”, in assay [1], the binding entry was “binds”.

B1: Atg7 (protein, UniProt Q9D906 1-698)
chain: MGDPGLAKLQFAPFNSALDVGFWHELTQKKLNEYRLDEAPKDIKGYYYNGDSAGLPTRLTLEFSAFDMSASTPAHCCPAMGTLHNTNTLEAFKTADKKLLLEQSANEIWEAIKSGAALENPMLLNKFLLLTFADLKKYHFYYWFCCPALCLPESIPLIRGPVSLDQRLSPKQIQALEHAYDDLCRAEGVTALPYFLFKYDDDTVLVSLLKHYSDFFQGQRTKITVGVYDPCNLAQYPGWPLRNFLVLAAHRWSGSFQSVEVLCFRDRTMQGARDVTHSIIFEVKLPEMAFSPDCPKAVGWEKNQKGGMGPRMVNLSGCMDPKRLAESSVDLNLKLMCWRLVPTLDLDKVVSVKCLLLGAGTLGCNVARTLMGWGVRHVTFVDNAKISYSNPVRQPLYEFEDCLGGGKPKALAAAERLQKIFPGVNARGFNMSIPMPGHPVNFSDVTMEQARRDVEQLEQLIDNHDVIFLLMDTRESRWLPTVIAASKRKLVINAALGFDTFVVMRHGLKKPKQQGAGDLCPSHLVAPADLGSSLFANIPGYKLGCYFCNDVVAPGDSTRDRTLDQQCTVSRPGLAVIAGALAVELMVSVLQHPEGGYAIASSSDDRMNEPPTSLGLVPHQIRGFLSRFDNVLPVSLAFDKCTACSPKVLDQYEREGFTFLAKVFNSSHSFLEDLTGLTLLHQETQAAEIWDMSDEETV
With B1, in assay [2], the binding entry was “binds”.

B2: Atg7 (rat glomeruli) (protein, UniProt Q641Y5 1-698)
chain: MGDPGLSKLQFAPFNSALDVGFWHELTQKKLNEYRLDEAPKDIKGYYYNGDSAGLPTRLTLEFSAFDMSAPTPARCCPAMGTLHNTNTLEAFKTADKKLLLEQSANEIWEAIKSGAALENPMLLNKFLLLTFADLKKYHFYYWFCCPALCLPESIPLIRGPVGLDQRLSPKQIQALEHAYDDLCRTEGVTALPYFLFKYDDDTVLVSLLKHYSDFFQGQRTKLTVGVYDPCNLTQHPGWPLRNFLVLAAHRWSGSFQSVEVLCFRDRTMQGARDVTHSIIFEVKLPEMAFSPDCPKAVGWEKNQKGGMGPRMVNLSGCMDPKRLAESSVDLNLKLMCWRLVPTLDLDKVVSVKCLLLGAGTLGCNVARTLMGWGVRHVTFVDNAKISYSNPVRQPLYEFEDCLGGGKPKALAAAERLQKIFPGVNASGFNMSIPMPGHPVNFSDVTMEQARRDVEQLEELIDSHDVIFLLMDTRESRWLPTVIAASKRKLVINAALGFDTFVVMRHGLKKPKQQGAGDLCPSHLVAPADLGSSLFANIPGYKLGCYFCNDVVAPGDSTRDRTLDQQCTVSRPGLAVIAGALAVELMVSVLQHPEGGYAIASSSDDRMNEPPTSLGLVPHQIRGFLSRFDNVLPVSLAFDKCTACSSKVLDQYEQEGFTFLAKVFNSSHSFLEDLTGLTLLHQETQAAEIWDMSDEETV
B2: the binding entry in assay [3] is “binds”.
